Assay results as given in publication PMC9355564, “A network of cytosolic (co)chaperones promotes the biogenesis of mitochondrial signal-anchored outer membrane proteins” (eLife, 2022).
No constants are given. Whether binding was seen depends on the method and setting. Binding seen in cells or lysates may run through a third protein. Binding calls can cover weak binding; strength is not graded here.

Key:
Experiment in all cases: pull-down; C-terminally 3HA-tagged proteins translated in vitro in yeast extract (from WT cells, or from cells depleted of Ydj1 and Sis1), pulled down with anti-HA beads; co-purified endogenous proteins in the eluate detected by western blot
[1] = molecular target: T1, Mcr1-3HA (full length) (S. cerevisiae) (UniProt P36060)
T1 sequence: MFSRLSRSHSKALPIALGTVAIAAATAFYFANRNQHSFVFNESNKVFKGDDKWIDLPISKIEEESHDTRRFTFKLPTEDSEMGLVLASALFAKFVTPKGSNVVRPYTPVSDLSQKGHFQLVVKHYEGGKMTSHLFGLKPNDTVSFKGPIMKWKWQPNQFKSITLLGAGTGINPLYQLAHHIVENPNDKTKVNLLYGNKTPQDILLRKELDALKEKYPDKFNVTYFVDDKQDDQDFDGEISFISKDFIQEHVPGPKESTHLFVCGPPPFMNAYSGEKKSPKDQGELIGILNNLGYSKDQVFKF

[2] = molecular target: T2, Msp1-3HA (full length) (S. cerevisiae) (UniProt P28737)
T2 sequence: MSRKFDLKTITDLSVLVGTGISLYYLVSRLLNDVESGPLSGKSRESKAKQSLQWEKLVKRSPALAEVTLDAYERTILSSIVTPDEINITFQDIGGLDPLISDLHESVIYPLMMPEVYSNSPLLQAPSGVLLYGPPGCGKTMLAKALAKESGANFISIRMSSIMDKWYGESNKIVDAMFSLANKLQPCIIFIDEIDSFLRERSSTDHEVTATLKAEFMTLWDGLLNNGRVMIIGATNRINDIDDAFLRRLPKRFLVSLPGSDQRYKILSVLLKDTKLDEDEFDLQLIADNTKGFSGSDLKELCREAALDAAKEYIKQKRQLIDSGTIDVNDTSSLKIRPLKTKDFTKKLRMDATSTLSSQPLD

[3] = molecular target: T3, Tom70-3HA (full length) (S. cerevisiae) (UniProt P07213)
T3 sequence: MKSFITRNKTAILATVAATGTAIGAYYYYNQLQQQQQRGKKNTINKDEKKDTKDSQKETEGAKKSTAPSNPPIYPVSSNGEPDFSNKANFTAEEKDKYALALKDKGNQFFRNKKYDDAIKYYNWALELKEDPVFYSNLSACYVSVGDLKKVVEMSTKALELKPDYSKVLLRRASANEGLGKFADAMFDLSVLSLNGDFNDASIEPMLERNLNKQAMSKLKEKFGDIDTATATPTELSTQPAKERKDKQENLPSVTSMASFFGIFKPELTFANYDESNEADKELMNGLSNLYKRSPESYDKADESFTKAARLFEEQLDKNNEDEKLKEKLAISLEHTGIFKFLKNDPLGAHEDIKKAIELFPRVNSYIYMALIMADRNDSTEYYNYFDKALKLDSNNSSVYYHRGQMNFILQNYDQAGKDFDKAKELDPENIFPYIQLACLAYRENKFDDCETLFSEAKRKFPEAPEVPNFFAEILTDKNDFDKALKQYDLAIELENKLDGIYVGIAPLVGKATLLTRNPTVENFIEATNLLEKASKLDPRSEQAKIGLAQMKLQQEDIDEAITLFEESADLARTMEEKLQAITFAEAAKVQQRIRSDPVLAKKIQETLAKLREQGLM

Measured: binding

Hsc82/Hsp82
binds weakly: all assays above
